Results deposited as PubChem BioAssay AID1224828 (NIAID, 2016).

- Aim: 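Regulators linking TLR4 signalling to p65 nuclear translocation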 (primary screen)
- System: mouse RAW264.7 G9 macrophage reporter cells (GFP-p65, Tnf promoter-mCherry)
- Knock-down reagent: siRNA pool against mouse genes, 100 nM
- Timing: 2 days siRNA transfection, then 40 min LPS before fixation
- Conditions: LPS (Salmonella minnesota R595) at 10 ng/ml
- Detection: 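Microscopy ratio of nuclear to perinuclear-ring GFP-p65 signal, scaled to the plate median; gene score is the average of two replicate robust z-scores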
- Scale: p65 translocation robust z-score: higher = more nuclear NF-kappaB p65 after LPS than the plate median; nuclear/cytoplasmic p65 ratio: higher = more nuclear NF-kappaB p65
- Call rule: 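Called active when z exceeds 3.3 or falls under -1.56 (median of Tlr4 controls), giving activity score of at least 50; no calls for control wells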
- Meaning of the calls: active = hit (p65 shift raised or lowered); inactive = no clear change
In all, the deposit lists about 17,000 reagents; below is an unselected part. 762 of them (4.5%) were called active. 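Active calls include both raised and lowered p65 entry, mostly lowered; wells with fewer than 50 cells lack a z-score.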 Raw values vary from plate to plate and are shown uncorrected. No sequences are given here.

gene knocked down	p65 translocation robust z-score	nuclear/cytoplasmic p65 ratio, rep 1	nuclear/cytoplasmic p65 ratio, rep 2	low cell count flag	Outcome
Papln	0.76	1.54	1.5	enough cells to score	inactive
Rnf5	-0.85	1.26	1.16	enough cells to score	inactive
Sf3a1	-2.54	1.16	1.21	enough cells to score	active
Otub1	-0.26	1.47	1.32	enough cells to score	inactive
Rpl7		1.36	1.13	fewer than 50 cells per well; well left out of scoring	inactive
Ap2a2	-0.57	1.52	1.59	enough cells to score	inactive
Cntd1	-0.8	1.22	1.32	enough cells to score	inactive
Smpdl3b		1.2	1.14	fewer than 50 cells per well; well left out of scoring	inactive
Sec61a1		1.43	1.11	fewer than 50 cells per well; well left out of scoring	inactive
Aknaos		1.1	1.16	fewer than 50 cells per well; well left out of scoring	inactive
Ubiad1	-1.8	1.36	1.19	enough cells to score	active
Wscd2		1.45	1.54	fewer than 50 cells per well; well left out of scoring	inactive
Acta1	0.12	1.65	1.62	enough cells to score	inactive
Mrpl43	1.34	2	1.8	enough cells to score	inactive
Ndufs5-ps	0.81	1.46	1.52	enough cells to score	inactive
Gorasp2	1.29	1.78	1.79	enough cells to score	inactive
Armcx2	-0.44	1.47	1.65	enough cells to score	inactive
Scrt1	-0.98	1.26	1.13	enough cells to score	inactive
Lrfn3	1.86	1.96	1.86	enough cells to score	inactive
Gstcd	0.12	1.36	1.5	enough cells to score	inactive
Gaa	0.77	1.49	1.51	enough cells to score	inactive
Emc4	0	1.44	1.42	enough cells to score	inactive
Fos		1.27	1.23	fewer than 50 cells per well; well left out of scoring	inactive
Dsc1	0.44	1.59	1.39	enough cells to score	inactive
Net1	0.81	1.48	1.51	enough cells to score	inactive
Or6b1		1.39	1.08	fewer than 50 cells per well; well left out of scoring	inactive
Pramel3a	1.54	1.58	1.39	enough cells to score	inactive
Skp2	-1.68	1.35	1.33	enough cells to score	active
Or2g7	-0.05	1.51	1.5	enough cells to score	inactive
Srxn1	0.04	1.79	1.47	enough cells to score	inactive
Svs4	-0.35	1.38	1.19	enough cells to score	inactive
Slc14a1	-0.08	1.5	1.61	enough cells to score	inactive
Or8d6	0.11	1.44	1.27	enough cells to score	inactive
Tex101		1.06	1.14	fewer than 50 cells per well; well left out of scoring	inactive
Gpkow	-1.41	1.22	1.54	enough cells to score	inactive
Oas1e	0.57	1.91	1.52	enough cells to score	inactive
Scnn1b	0.55	1.53	1.74	enough cells to score	inactive
Nlrp4a	2.61	1.85	1.66	enough cells to score	inactive
Bcap31		1.66	1.61	fewer than 50 cells per well; well left out of scoring	inactive
Lrrc8a	-1.7	1.49	1.26	enough cells to score	active
Ifi203	0.27	1.58	1.47	enough cells to score	inactive
2210408O09Rik (retired record)	0.61	1.44	1.34	enough cells to score	inactive
Sgk1	0.45	1.96	1.43	enough cells to score	inactive
Nat10	1.26	1.8	1.87	enough cells to score	inactive
Spred1	-0.2	1.3	1.28	enough cells to score	inactive
Fhip1a	-0.64	1.35	1.45	enough cells to score	inactive
Otx2		1.48	1.24	fewer than 50 cells per well; well left out of scoring	inactive

5 entries from above, reformatted.
{"gene knocked down":"Gstcd","p65 translocation robust z-score":0.12,"nuclear/cytoplasmic p65 ratio, rep 1":1.36,"nuclear/cytoplasmic p65 ratio, rep 2":1.5,"low cell count flag":"enough cells to score","Outcome":"inactive"}
{"gene knocked down":"Gaa","p65 translocation robust z-score":0.77,"nuclear/cytoplasmic p65 ratio, rep 1":1.49,"nuclear/cytoplasmic p65 ratio, rep 2":1.51,"low cell count flag":"enough cells to score","Outcome":"inactive"}
{"gene knocked down":"Emc4","p65 translocation robust z-score":0,"nuclear/cytoplasmic p65 ratio, rep 1":1.44,"nuclear/cytoplasmic p65 ratio, rep 2":1.42,"low cell count flag":"enough cells to score","Outcome":"inactive"}
{"gene knocked down":"Fos","nuclear/cytoplasmic p65 ratio, rep 1":1.27,"nuclear/cytoplasmic p65 ratio, rep 2":1.23,"low cell count flag":"fewer than 50 cells per well; well left out of scoring","Outcome":"inactive"}
{"gene knocked down":"Dsc1","p65 translocation robust z-score":0.44,"nuclear/cytoplasmic p65 ratio, rep 1":1.59,"nuclear/cytoplasmic p65 ratio, rep 2":1.39,"low cell count flag":"enough cells to score","Outcome":"inactive"}

The listing continues.
gene knocked down	p65 translocation robust z-score	nuclear/cytoplasmic p65 ratio, rep 1	nuclear/cytoplasmic p65 ratio, rep 2	low cell count flag	Outcome
Meaf6	-0.06	1.16	1.3	enough cells to score	inactive
Gpr25	-1.03	1.3	1.49	enough cells to score	inactive
4930539J05Rik		1.59	1.73	fewer than 50 cells per well; well left out of scoring	inactive
Slc7a11	0.93	1.49	1.33	enough cells to score	inactive
Arhgef28	2.2	1.52	2.12	enough cells to score	inactive
Rpl36a	-0.96	1.26	1.14	enough cells to score	inactive
Sdr9c7	0.19	1.47	1.22	enough cells to score	inactive
Ptges3	0.23	1.55	1.56	enough cells to score	inactive
Ostf1	0.69	1.6	1.45	enough cells to score	inactive
Ptf1a		1.3	1.25	fewer than 50 cells per well; well left out of scoring	inactive
Habp2	0.5	1.69	1.64	enough cells to score	inactive
Ube3a	0.99	1.62	1.67	enough cells to score	inactive
Pp2d1		1.22	1.84	fewer than 50 cells per well; well left out of scoring	inactive
Nlrp9c	-0.59	1.32	1.31	enough cells to score	inactive
Nfxl1	0.96	1.53	1.71	enough cells to score	inactive
Srm	-1.17	1.35	1.42	enough cells to score	inactive
Fam32a		1.29	1.62	fewer than 50 cells per well; well left out of scoring	inactive
Fgf4	-1.45	1.15	1.21	enough cells to score	inactive
Prkar2a	0.02	1.71	1.36	enough cells to score	inactive
Obsl1	1.51	1.84	1.8	enough cells to score	inactive
Trerf1	0.01	1.52	1.5	enough cells to score	inactive
Adamts3	-0.18	1.36	1.41	enough cells to score	inactive
Or5aq6	1.29	1.89	1.7	enough cells to score	inactive
Oaf	-0.61	1.51	1.65	enough cells to score	inactive
Rcbtb2	-0.21	1.4	1.39	enough cells to score	inactive
Igfn1	-0.53	1.31	1.52	enough cells to score	inactive
Or8g17	0.21	1.65	1.44	enough cells to score	inactive
Cldn12	0.23	1.38	1.41	enough cells to score	inactive
